# From publication PMC9544338
# By UniProt entry, the sequences of proteins in these tests, tags left out. Where a name states a change or a piece, a line headed by the entry shows the natural chain unless it says otherwise.
# UniProt P09471: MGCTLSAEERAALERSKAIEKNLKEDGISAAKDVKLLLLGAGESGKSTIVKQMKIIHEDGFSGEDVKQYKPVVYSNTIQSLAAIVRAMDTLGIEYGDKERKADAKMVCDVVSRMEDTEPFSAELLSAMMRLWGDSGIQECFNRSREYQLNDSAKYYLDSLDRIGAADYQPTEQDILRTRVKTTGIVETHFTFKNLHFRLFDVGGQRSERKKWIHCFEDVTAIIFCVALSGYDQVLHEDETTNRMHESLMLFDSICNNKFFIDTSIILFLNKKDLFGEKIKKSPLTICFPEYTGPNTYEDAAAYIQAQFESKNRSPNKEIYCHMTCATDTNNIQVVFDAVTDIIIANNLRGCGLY
# UniProt P84077: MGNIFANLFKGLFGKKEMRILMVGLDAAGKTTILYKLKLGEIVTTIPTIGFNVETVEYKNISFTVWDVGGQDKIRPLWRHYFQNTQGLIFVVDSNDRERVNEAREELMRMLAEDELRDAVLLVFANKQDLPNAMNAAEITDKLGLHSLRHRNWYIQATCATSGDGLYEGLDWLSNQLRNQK
# UniProt P16520: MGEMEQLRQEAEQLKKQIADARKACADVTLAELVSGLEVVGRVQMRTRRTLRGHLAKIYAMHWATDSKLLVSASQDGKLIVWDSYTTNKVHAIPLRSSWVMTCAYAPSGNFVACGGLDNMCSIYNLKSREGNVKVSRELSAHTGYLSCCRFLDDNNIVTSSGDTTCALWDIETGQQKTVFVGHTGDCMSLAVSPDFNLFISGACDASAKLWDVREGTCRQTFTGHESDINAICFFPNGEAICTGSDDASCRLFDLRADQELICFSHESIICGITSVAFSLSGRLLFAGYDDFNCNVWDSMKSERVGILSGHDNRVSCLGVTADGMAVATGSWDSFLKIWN
# Results are given in words; binding and its absence hold for the method and conditions named. Binding seen in cells or lysates may run through a third protein. Some entries that bind do so weakly or less than the wild type.
# Tests used:
# [1] = molecular target: Gαo[R209C] (construct of fig. S2, tag not shown) (human) (UniProt P09471); test: co-IP + pull-down; N2a cells cotransfected with Gαo variants and the Golgi partners (fig. S2, B to G); immunoprecipitation with anti-GFP nanobody or glutathione pull-down, which one for which partner was not shown
# [2] = molecular target: Gαo[E246K] (construct of fig. S2, tag not shown) (human) (UniProt P09471); test: as above
# [3] = molecular target: Gαo[G203R] (construct of fig. S2, tag not shown) (human) (UniProt P09471); test: as above
# [4] = molecular target: Gαo wild type (construct of fig. S2, tag not shown) (human) (UniProt P09471); test: as above
# [5] = molecular target: nanoluciferase-tagged Gαo[R209C] (plasmid Go1-CASE) (human) (UniProt P09471); test: FRET or BRET; HEK293T cells transfected with Go1-CASE (NanoLuc-tagged Gαo, Gβ3, Venus-tagged Gγ9), with or without a GPCR; basal BRET ratio in PBS with 10 μM furimazine; GPCR agonists decreased the BRET
# [6] = molecular target: nanoluciferase-tagged Gαo wild type (plasmid Go1-CASE) (human) (UniProt P09471); test: as above
# [7] = molecular target: nanoluciferase-tagged Gαo[G203R] (plasmid Go1-CASE) (human) (UniProt P09471); test: as above
# [8] = molecular target: nanoluciferase-tagged Gαo[E246K] (plasmid Go1-CASE) (human) (UniProt P09471); test: as above
binding [1],binding [2],binding [3],binding [4],binding [5],binding [6],binding [7],binding [8],Substance
binds,binds,binds,binds,,,,,Arf1-mRFP (from UniProt P84077 1-181)
,,,,binds,binds,binds,binds,Gβγ of the plasmid Go1-CASE (Gβ3 and Gγ9 with the Venus tag) (from UniProt P16520 1-340; O14610 1-69) (complex)
